Results from PMC3737563, “Investigation of DNA sequence recognition by a streptomycete MarR family transcriptional regulator through surface plasmon resonance and X-ray crystallography” (Nucleic Acids Research, 2013).

target: T1, SCO3205 (MarR family regulator) (Streptomyces coelicolor) (UniProt Q9KYU1); test: SPR (ReDCaT); conditions: 50 nM SCO3205 dimer; HBS-EP+ buffer: 10 mM HEPES pH 7.4, 150 mM NaCl, 3 mM EDTA, 0.05% (v/v) surfactant P20; 20 C; Biacore T200, ReDCaT SA chip; high values mean tight binding; recombinant protein; residues 1-163; protein details: N-terminal His tag plus TEV site, not removed; label: biotin linker S6 hybridised to overhang
T1 sequence (looked up): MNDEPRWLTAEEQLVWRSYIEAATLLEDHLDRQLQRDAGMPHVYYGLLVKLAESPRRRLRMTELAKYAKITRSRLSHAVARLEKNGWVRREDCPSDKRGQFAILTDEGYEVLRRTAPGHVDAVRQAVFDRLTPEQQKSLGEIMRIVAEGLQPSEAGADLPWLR

Row | Sequence | binding signal
1 | CAATACTTGAACTCTCAGTCTTTA (double strand) [O3204_A17G] | 105 %Rmax
2 | CAATACTCGAACTCTCAATCTTTA (double strand) [O3204_T7C] | 74.2 %Rmax
3 | CAATACTTGAACTCCCAATCTTTA (double strand) [O3204_T14C] | 85.3 %Rmax
4 | CAATACTTGCACTCTCAATCTTTA (double strand) [O3204_A9C] | 93 %Rmax
5 | CAATACTTGAACTCTGAATCTTTA (double strand) [O3204_C15G] | 95.4 %Rmax
6 | CAATACTTGAACTCTCGATCTTTA (double strand) [O3204_A16G] | 73.3 %Rmax
7 | CAATACTTGAACTCACAATCTTTA (double strand) [O3204_T14A] | 109 %Rmax
8 | CAATACCTGAACTCTCAATCTTTA (double strand) [O3204_T6C] | 90.7 %Rmax
9 | CAATACTTGAACTCTCATTCTTTA (double strand) [O3204_A17T] | 100 %Rmax
10 | CAATACTAGAACTCTCAATCTTTA (double strand) [O3204_T7A] | 96.5 %Rmax
11 | CAATACTTGTACTCTCAATCTTTA (double strand) [O3204_A9T] | 99.4 %Rmax
12 | CAATACTGGAACTCTCAATCTTTA (double strand) [O3204_T7G] | 88.1 %Rmax
13 | CAATACTTGAGCTCTCAATCTTTA (double strand) [O3204_A10G] | 95.6 %Rmax
14 | CAATACTTGAACTCTCACTCTTTA (double strand) [O3204_A17C] | 103 %Rmax
15 | CAATACTTGGACTCTCAATCTTTA (double strand) [O3204_A9G] | 78.7 %Rmax
16 | CAATACTTGAACTCTCAATCTTTA (double strand) [O3204_WT] | 98.6 %Rmax
17 | CAATACTTGACCTCTCAATCTTTA (double strand) [O3204_A10C] | 96 %Rmax
18 | CAATACTTGAACTCTCCATCTTTA (double strand) [O3204_A16C] | 102 %Rmax
19 | CAATACTTGAACTCTTAATCTTTA (double strand) [O3204_C15T] | 102 %Rmax
20 | CAATACATGAACTCTCAATCTTTA (double strand) [O3204_T6A] | 89.2 %Rmax
21 | CAATACTTGAACTCTAAATCTTTA (double strand) [O3204_C15A] | 111 %Rmax
22 | CAATACGTGAACTCTCAATCTTTA (double strand) [O3204_T6G] | 97.1 %Rmax
23 | CAATACTTGAACTCTCTATCTTTA (double strand) [O3204_A16T] | 104 %Rmax
24 | CAATACTTGATCTCTCAATCTTTA (double strand) [O3204_A10T] | 104 %Rmax
25 | CAATACTTGAACTCGCAATCTTTA (double strand) [O3204_T14G] | 109 %Rmax

same assay, conditions: 100 nM SCO3205 dimer; HBS-EP+ buffer: 10 mM HEPES pH 7.4, 150 mM NaCl, 3 mM EDTA, 0.05% (v/v) surfactant P20; 20 C; Biacore T200, ReDCaT SA chip; high values mean tight binding; recombinant protein; residues 1-163; protein details: N-terminal His tag plus TEV site, not removed; label: biotin linker S6 hybridised to overhang; counted as no binding

Row | Sequence | binding signal
26 | ACGGCACGTAAAGATTGAGAGT (double strand) [O3204_LH_Δ14] | 1.4 %Rmax
27 | ACGGCACGTAAAGATTGAGAGTTC (double strand) [O3204_LH_Δ12] | 1.5 %Rmax
28 | ACGGCACGTAAAGATTGAGA (double strand) [O3204_LH_Δ16] | 1.4 %Rmax
29 | CGAGACGGTTCCTTGAACATTA (double strand) [O3205_LH_Δ14] | 1.6 %Rmax

same assay, conditions: 100 nM SCO3205 dimer; HBS-EP+ buffer: 10 mM HEPES pH 7.4, 150 mM NaCl, 3 mM EDTA, 0.05% (v/v) surfactant P20; 20 C; Biacore T200, ReDCaT SA chip; high values mean tight binding; recombinant protein; residues 1-163; protein details: N-terminal His tag plus TEV site, not removed; label: biotin linker S6 hybridised to overhang; letters put together from the description; counted as no binding

Row | Sequence | binding signal
30 | TAATGTTCAAGGAACCGTCTCGTACAGTG (double strand) [fragment_13] | 0.65 %Rmax
31 | CGTGCCGTCAATCTACGCCGATTTTGTTT (double strand) [fragment_9] | 0.6 %Rmax
32 | GCGCTCCCGGACGGCGGCGGCCATGGCTA (double strand) [fragment_1] | 0.55 %Rmax
33 | CAAGGAACCGTCTCGTACAGTGGGACACA (double strand) [fragment_14] | 0.7 %Rmax
34 | ATCTTTACGTGCCGTCAATCTACGCCGAT (double strand) [fragment_8] | 0.95 %Rmax
35 | CGGCGGCCATGGCTACTCCAATACTTGAA (double strand) [fragment_3] | 0.5 %Rmax
36 | CGGACGGCGGCGGCCATGGCTACTCCAAT (double strand) [fragment_2] | 0.45 %Rmax

target: T1, SCO3205 (MarR family regulator) (Streptomyces coelicolor); test: SPR; conditions: 50 nM SCO3205; SPR (ReDCaT, Biacore T200) in HBS-EP+: 10 mM HEPES pH 7.4, 150 mM NaCl, 3 mM EDTA, 0.05% P20, 20°C; recombinant protein; residues 1-163; protein details: N-terminal His tag plus TEV site, not removed; label: biotin linker S6 hybridised to overhang

Row | Sequence | binding result
37 | CAATACTAGAACTCTCAATCTTTA / TAAAGATTGAGAGTTCTAGTATTGCCTACCCTACGTCCTCCTGC [O3204_T7A] | binds more weakly
38 | CAATACTTGAACTCTCCATCTTTA / TAAAGATGGAGAGTTCAAGTATTGCCTACCCTACGTCCTCCTGC [O3204_A16C] | binds more weakly
39 | CAATACGTGAACTCTCAATCTTTA / TAAAGATTGAGAGTTCACGTATTGCCTACCCTACGTCCTCCTGC [O3204_T6G] | binds more weakly

same assay, conditions: 100 nM SCO3205, fully lost during dissociation; SPR (ReDCaT, Biacore T200) in HBS-EP+: 10 mM HEPES pH 7.4, 150 mM NaCl, 3 mM EDTA, 0.05% P20, 20°C; recombinant protein; residues 1-163; protein details: N-terminal His tag plus TEV site, not removed; label: biotin linker S6 hybridised to overhang

Row | Sequence | binding signal (% of theoretical Rmax)
40 | GACCTGTTCAAAGCTCAAGCAGAA / TTCTGCTTGAGCTTTGAACAGGTCCCTACCCTACGTCCTCCTGC [O7815_24mer] | 50

same assay, conditions: 100 nM SCO3205; SPR (ReDCaT, Biacore T200) in HBS-EP+: 10 mM HEPES pH 7.4, 150 mM NaCl, 3 mM EDTA, 0.05% P20, 20°C; recombinant protein; residues 1-163; protein details: N-terminal His tag plus TEV site, not removed; label: biotin linker S6 hybridised to overhang

Row | Sequence | binding signal (% of theoretical Rmax)
41 | ACGCCGATTTTGTTTAATGTTCAAGGAAC / GTTCCTTGAACATTAAACAAAATCGGCGTCCTACCCTACGTCCTCCTGC [fragment_11] | 100

same assay, conditions: LH boundary, comparable to 36-mer; SPR (ReDCaT, Biacore T200) in HBS-EP+: 10 mM HEPES pH 7.4, 150 mM NaCl, 3 mM EDTA, 0.05% P20, 20°C; recombinant protein; residues 1-163; protein details: N-terminal His tag plus TEV site, not removed; label: biotin linker S6 hybridised to overhang

Row | Sequence | binding result
42 | ACGGCACGTAAAGATTGAGAGTTCAAGTATTG / CAATACTTGAACTCTCAATCTTTACGTGCCGTCCTACCCTACGTCCTCCTGC [O3204_LH_Δ4] | binds

same assay, conditions: SPR (ReDCaT, Biacore T200) in HBS-EP+: 10 mM HEPES pH 7.4, 150 mM NaCl, 3 mM EDTA, 0.05% P20, 20°C; recombinant protein; residues 1-163; protein details: N-terminal His tag plus TEV site, not removed; label: biotin linker S6 hybridised to overhang

Row | Sequence | binding result
43 | ACGGCACGTAAAGATTGAGAGTTCAAGT / ACTTGAACTCTCAATCTTTACGTGCCGTCCTACCCTACGTCCTCCTGC [O3204_LH_Δ8] | binds more weakly
44 | ACGGCACGTAAAGATTGAGAGTTCAAGTAT / ATACTTGAACTCTCAATCTTTACGTGCCGTCCTACCCTACGTCCTCCTGC [O3204_LH_Δ6] | binds more weakly
45 | ACTCCAATACTTGAACTCTCAA / TTGAGAGTTCAAGTATTGGAGTCCTACCCTACGTCCTCCTGC [O3204_RH_Δ14] | binds more weakly

Construct, isoform or probe ends are uncertain for at least one entry. For part of these data: Weaker means in comparison with the reference protein, sequence or condition of that experiment. For part of these data: At least one verdict was read from the data and is not stated in words by the source. Where a protein sequence is shown, tags need not be part of it. For part of these data: Whether high values mean tight binding is not given here for every scale.
